From patent publication US20210115121A1
Where a chain is given by its changes, count along the chain named. Results are given in words; binding and its absence hold for the method and conditions named. Some entries that bind do so weakly or less than the wild type.

Sequences of proteins named here, by UniProt entry; tags and fusion partners are left off. A change or cut given only in a name is not applied to a line headed by its entry. A line that says so, or that is headed by a name, gives the form on record, which may keep a tag or linker.
Tau from human Alzheimer's disease brain (isolated Tau PHF fibrils from Alzheimer's disease patients) (P10636, form named): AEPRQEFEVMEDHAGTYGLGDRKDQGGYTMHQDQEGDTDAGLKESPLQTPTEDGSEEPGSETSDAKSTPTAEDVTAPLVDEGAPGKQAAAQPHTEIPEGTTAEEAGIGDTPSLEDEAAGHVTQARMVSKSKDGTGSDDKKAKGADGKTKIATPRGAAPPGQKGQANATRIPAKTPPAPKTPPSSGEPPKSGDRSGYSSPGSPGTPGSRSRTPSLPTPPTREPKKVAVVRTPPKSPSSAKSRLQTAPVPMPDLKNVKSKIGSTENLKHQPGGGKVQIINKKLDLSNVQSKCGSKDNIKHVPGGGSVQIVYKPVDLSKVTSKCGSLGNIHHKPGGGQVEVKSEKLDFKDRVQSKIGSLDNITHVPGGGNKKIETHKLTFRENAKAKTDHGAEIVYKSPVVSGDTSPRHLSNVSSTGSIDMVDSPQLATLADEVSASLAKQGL
human Tau P301L from brain of P301L Tau transgenic mice (P10636, form named): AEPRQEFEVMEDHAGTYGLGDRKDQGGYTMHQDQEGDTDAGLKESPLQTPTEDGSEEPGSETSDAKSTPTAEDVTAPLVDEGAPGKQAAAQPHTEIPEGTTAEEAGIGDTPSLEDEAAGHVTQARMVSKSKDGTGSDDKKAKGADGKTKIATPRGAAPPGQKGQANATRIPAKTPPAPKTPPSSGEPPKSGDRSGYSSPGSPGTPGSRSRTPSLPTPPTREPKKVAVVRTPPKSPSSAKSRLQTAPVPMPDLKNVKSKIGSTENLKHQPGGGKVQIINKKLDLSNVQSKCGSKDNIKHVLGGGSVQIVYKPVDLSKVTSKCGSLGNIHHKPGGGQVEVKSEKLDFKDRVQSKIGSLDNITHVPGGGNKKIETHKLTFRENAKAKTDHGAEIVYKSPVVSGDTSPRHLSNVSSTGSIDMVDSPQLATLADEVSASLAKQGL

How the values were obtained:
[1] = molecular target: Tau from control human brain (samples of Tau negative pathology) (human) (UniProt P10636); test: immunostaining of human brain cryosections (Experiment 3.2)
[2] = molecular target: Tau from human Alzheimer's disease brain (isolated Tau PHF fibrils from Alzheimer's disease patients) (human) (UniProt P10636); test: as above
[3] = molecular target: Tau from human progressive supranuclear palsy brain (human) (UniProt P10636); test: western blot (Experiment 3.3)
[4] = molecular target: Tau from control human brain (samples of Tau negative pathology) (human) (UniProt P10636); test: western blot (Experiment 3.3)
[5] = molecular target: Tau from human Alzheimer's disease brain (isolated Tau PHF fibrils from Alzheimer's disease patients) (human) (UniProt P10636); test: western blot (Experiment 3.3)
[6] = molecular target: Tau from human progressive supranuclear palsy brain (human) (UniProt P10636); test: Western blot (SDS-PAGE, PVDF membrane) on Tau from fraction 8 samples of human brain
[7] = molecular target: Tau from human Alzheimer's disease brain (isolated Tau PHF fibrils from Alzheimer's disease patients) (human) (UniProt P10636); test: as above
[8] = molecular target: Tau from human progressive supranuclear palsy brain (human) (UniProt P10636); test: western blot
[9] = molecular target: Tau from control human brain (samples of Tau negative pathology) (human) (UniProt P10636); test: western blot
[10] = molecular target: human Tau P301L from brain of P301L Tau transgenic mice (human) (UniProt P10636); test: western blot
[11] = molecular target: Tau from human Alzheimer's disease brain (isolated Tau PHF fibrils from Alzheimer's disease patients) (human) (UniProt P10636); test: western blot
[12] = molecular target: Tau from control human brain (samples of Tau negative pathology) (human) (UniProt P10636); test: immunostaining of human brain samples
[13] = molecular target: Tau from human Alzheimer's disease brain (isolated Tau PHF fibrils from Alzheimer's disease patients) (human) (UniProt P10636); test: immunostaining of human brain samples
[14] = molecular target: Tau from human Alzheimer's disease brain (isolated Tau PHF fibrils from Alzheimer's disease patients) (human) (UniProt P10636); test: immunostaining of cryosections of human AD hippocampus
[15] = molecular target: Tau from human Alzheimer's disease brain (isolated Tau PHF fibrils from Alzheimer's disease patients) (human) (UniProt P10636); test: SPR, Biacore (Experiment 2.3)
[16] = molecular target: Tau from human Alzheimer's disease brain (isolated Tau PHF fibrils from Alzheimer's disease patients) (human) (UniProt P10636); test: SPR, Biacore T200
[17] = molecular target: Tau from human progressive supranuclear palsy brain (human) (UniProt P10636); test: Western blot (SDS-PAGE, PVDF membrane) on Tau from fraction 8 samples of human brain [continued) B]
[18] = molecular target: Tau from control human brain (samples of Tau negative pathology) (human) (UniProt P10636); test: as above
[19] = molecular target: Tau from human Alzheimer's disease brain (isolated Tau PHF fibrils from Alzheimer's disease patients) (human) (UniProt P10636); test: as above
[20] = molecular target: Tau from human progressive supranuclear palsy brain (human) (UniProt P10636); test: Western blot (SDS-PAGE, PVDF membrane) on Tau from fraction 8 samples of human brain [continued) C]
[21] = molecular target: Tau from control human brain (samples of Tau negative pathology) (human) (UniProt P10636); test: as above
[22] = molecular target: Tau from human Alzheimer's disease brain (isolated Tau PHF fibrils from Alzheimer's disease patients) (human) (UniProt P10636); test: as above

Measured: binding

B1: AB1 having a rat VL of SEQ ID NO: 7 and a rat VH of SEQ ID NO.:8 (antibody, IgG1, V domains shown)
VH: EVKLEESGPGLMQPSETLSLTCTVSGFSLTSNDIAWVRQPLGKGLVWMGTIWTDGSTNYNSAVQSRLSISRDTSKSQFFLKMNSLQPEDTGTYYCARHRLYYGAFDYWGQGTMVTVS
VL: DIVMTQTPVSLSVTLGDQASISCRSSQSLEYSDGYTYLEWYLQKPGQSPQLLIYEVSNRFSGVPDRFIGSGSGTDFTLKISRVEPEDLGVYYCFQATHNPYTFGAGTKLEIK
not listed: [15] | [16] | [17] | [18] | [19] | [20] | [21] | [22]
binds: all other assays above

B2: mFab AB1 having a rat VL of SEQ ID No.: 7 and a rat VH of SEQ ID No.: 8 (Fab, V domains shown)
VH: B1 VH
VL: B1 VL
binds: [15] | [16]

B3: Tau-binding antibody having the light chain of SEQ ID No.: 14 and the heavy chain of SEQ ID No.:17 (antibody, human IgG4 S228P, kappa, V domains shown)
VH: EVQLQESGPGLVKPSETLSLTCTVSGFSLTSNDIAWIRQPPGKGLEWMGTIWTDGSTNYNAAVQSRVTISVDTSKNQFSLKLSSVTAADTAVYYCARHRLYYGAFDYWGQGTMVTVSS
VL: DIVMTQTPLSLSVTPGQPASISCRSSQSLEYSDGYTYLEWYLQKPGQSPQLLIYEVSNRFSGVPDRFSGSGSGTDFTLKISRVEAEDVGVYYCFQATHNPYTFGQGTKLEIKR
binds: [17] | [18] | [19] | [8] | [9] | [10] | [11]

B4: Tau-binding antibody having the light chain of SEQ ID No.: 14 and the heavy chain of SEQ ID No.:18 (antibody, human IgG4 S228P, kappa, V domains shown)
VH: B3 VH with A61T
VL: B3 VL
binds: [20] | [21] | [22] | [8] | [9] | [10] | [11]
